In PMC11126613:

B1: Kif4 (protein, UniProt P33174 1-1231)
chain: MKEEVKGIPVRVALRCRPLVSKEIKEGCQTCLSFVPGEPQVVVGNDKSFTYDFVFDPSTEQEEVFNTAVAPLIKGVFKGYNATVLAYGQTGSGKTYSMGGAYTAEQEHDSAIGVIPRVIQLLFKEINKKSDFEFTLKVSYLEIYNEEILDLLCSSREKATQINIREDPKEGIKIVGLTEKTVLVASDTVSCLEQGNNSRTVASTAMNSQSSRSHAIFTISIEQRKKNDKNSSFRSKLHLVDLAGSERQKKTKAEGDRLREGININRGLLCLGNVISALGDDKKGNFVPYRDSKLTRLLQDSLGGNSHTLMIACVSPADSNLEETLNTLRYADRARKIKNKPIINIDPQAAELNHLKQQVQQLQILLLQAHGGTLPGDINVEPSENLQSLMEKNQSLVEENEKLSRGLSEAAGQTAQMLERIILTEQANEKMNAKLEELRRHAACKVDLQKLVETLEDQELKENIEIICNLQQVIAQLSDEAAACMTATIDTAGEADTQVQSSPDTSRSSDVFSTQHALRQAQMSKELIELNKALALKEALAKKMTQNDNQLQPIQFQYQDNIKNLESEVLSLQREKEELVLELQTAKKDANQAKLSERRRKRLQELEGQIADLKKKLQEQSKLLKLKESTEHTVSKLNQEIRMMKNQRVQLMRQMKEDAEKFRQWKQQKDKEVIQLKERDRKRQYELLKLERNFQKQSNVLRRKTEEAAAANKRLKDALQKQKEVAEKRKETQSRGMESTAARMKNWLGNEIEVMVSTEEAKRHLNGLLEERKILAQDVAQLKEKRESGENPPLKLRRRTFSYDEIHGQDSGAEDSIAKQIESLETELELRSAQIADLQQKLLDAESEDRPKQRWESIATILEAKCAIKYLVGELVSSKILVSKLESSLNQSKASCIDVQKMLFEEQNHFAKIETELKEELVKVEQQHQEKVLYLLSQLQQSQMTEKQLEESVSEKEQQLLSTLKCQEEELRKMQEVCEQNQQLLQENSAIKQKLTLLQVASKQKPHLTRNIFQSPDSSFEYIPPKPKPCRIKEKCLEQSFAVEGLQYYSEPSVAEQDNEDSDDHADEEWIPTKLVKVSKKSIQGCSCKGWCGNKQCGCRKQKSDCNVSCSCDPTKCRNRHQNQDNSDAIELNQDSENSFKLEDPTEVTSGLSFFHPICATPSSKILKEMCDADQVQLKQPVFVSSSDHPELKSIASESQENKAIGKKKKRALASNTSFFSGCSPIQEESH
B2: Kif23 (protein, UniProt E9Q5G3 1-953)
chain: MKSAKAKTVRKPVIKKGSQTNLKDPVGVYCRVRPLSFPDQECCVEVINSTTLQLHTPEGYRLNRNGDYKETQYSFKRVFGTHTTQKELFDVVANPLVDDLIHGKNGLLFTYGVTGSGKTYTMTGSPGSGGLLPRCLNMIFNSIGSFQAKRYVFKSNDRNSMEIQCEVDALLERQKREALPIPKTPSSKRQADPEFADMINVQEFCKAEEVDEDSVYGVFVSYIEIYNNYIYDLLEEVQFDPIKPKLPQSKTLREDKNHNMYVAGCTEVEVKSTEEAFEVFWRGQKKRRIANTHLNRESSRSHSVFSIKLVQAPLDADGDNVLQEKEQITISQLSLVDLAGSERTNRTKAEGNRLREAGNINQSLMTLRTCMEVLRENQTYGTNKMVPYRDSKLTHLFKNYFDGEGKVRMIVCVNPKAEDYEESLQVMRFAEVTQEVEVARPVDKVICGLTPGRRYRNLPRGGPVGDEPLVPEVILQSFPPLPPCKLLDINDEETLPKLADTLEKRHHLRQLMTEDLNKKCLAFKALLKEFDNSLSNKENYVQEKLNEREKVISGQKLEIERLEKKNKTLEYKIEILEKTTTIYEEDKRNLQQELESQNQKLQRQFSDKRRLEARLQGMVTETSMKWQKECERRVAATQLEMQNKLWVKDEKLKQLKAIVTEPKPEKPERPSRERDREKIIPRSVSPSPLPLSSNNIAQISNGQQLMSQPQLHRRSNSCSSISVASCISEWEQKLSPFSTPVNVTSLARHRQQEPGQSKTCIVSDRRRGMCWTEGREMVPTFSSEIGVEEDHCRRNTPIPVRHRRSRSAGSRWVDHKPASNVQTETVMQPHVPHAITVSVANEKALAKCEKYMLTHQELASDGEIQTKVIKGDVYKTRGGGQSVQFTDIETLKQELPTGSRKRRSSTLAPAQPDGTESEWTDVETRCSVAVEMRAGSQLGPGYQHHAQPKRKKP
B3: Kifc1 (protein, UniProt Q9QWT9 1-674)
chain: MDVQAQRPPLLEVKRNVELKAALVKSSSRVPLSASRLKRGPDQMEDALEPAKKRTRVMGAVTKVDTSRPRGPLLSTVSQTQGHTAAQKGPKKTGPRGCSAIGTVLRSQKPVPAAPAQKPGTSTAPVVVGKRAGKRPAWDLKGQLCDLNEELKRYREKTQTLELENRGLREQLREVQEQATTLGTERNTLEGELASVRSRAEQDQQRLETLSARVLELEECLGTRERLLQELQGERLQLQEERSTLSTQLEEQERRFQATEAALSSSQEEVVCLRQKTEAQVTLLAEQGDRLYGLEMERRRLHNQLQELKGNIRVFCRVRPVLEGESTPSPGFLVFPPGPAGPSDPPTGLSLSRSDDRRSTLTGAPAPTVRHDFSFDRVFPPGSKQEEVFEEIAMLVQSALDGYPVCIFAYGQTGSGKTFTMEGGPRGDPQLEGLIPRAMRHLFSVAQEMSGQGWTYSFVASYVEIYNETVRDLLATGPRKGQGGECEIRRASPGSEELTVTNARYVPVSCEKEVEALLHLAHQNRAVAHTAQNKRSSRSHSVFQLQISGEHAARGLQCGAPLNLVDLAGSERLDPGLHLGPGERDRLRETQAINSSLSTLGLVIMALSNKESHVPYRNSKLTYLLQNSLGGSAKMLMFVNISPLEENVSESLNSLRFASKVNQCVIGTAQANKK
B4: Sorting nexin 18 (protein, UniProt Q91ZR2 1-614)
chain: MALRARALYDFKSENPGEISLREHEVLSLCSEQDIEGWLEGINSRGDRGLFPASYVQVIRAPEPGPPADGGPGAPARYANVPPGGFEPLPAAPPAAFPPLLQPQASPGSFQPPGAGFPYGGGALQPSPQQLYGGYQASLGSDDDWDDEWDDSSTVADEPGALGSGAYPDLDGSSSAGGGAAGRYRLSTRSDLSLGSRGVSAPPAPSVWSQELGHGEPQPQSLLHLRQVGRGGLRAGRGVRLREGWGQAVRGAGSYGPEWQENPYPFQCTIDDPTKQTKFKGMKSYISYKLVPTHTQVPVHRRYKHFDWLYARLAEKFPVISVPHLPEKQATGRFEEDFISKRRKGLIWWMNHMASHPVLAQCDVFQHFLTCPSSTDEKAWKQGKRKAEKDEMVGANFFLTLSTPPAAALDLQEVESKIDGFKCFTKKMDDSALQLNHTANEFARKQVTGFKKEYQKVGQSFRGLSQAFELDQQAFSVGLNQAIAFTGDAYDAIGELFAEQPRQDLDPVMDLLALYQGHLANFPDIIHVQKGALTKVKESRRHVEEGKMEVQKADGIQDRCNTISFATLAEIHHFHQIRVRDFKSQMQHFLQQQIIFFQKVTQKLEEALHKYDSV
B5: Rab3GAP2 (protein, UniProt Q8BMG7 1-1366)
chain: MACSIVQFCSFQDLQSARDFLFPHLREETPGALKRDPSKTSSWEDDSWGAWEETEPREPEEEGNTSKTQKNSWLQECVLSLSPTSDLMVIAREQKAAFLVRKWKHGDKGKEEMQFAVGWSGSVSAEEGEYVTSALCIPLASQKRSSTGRPDWTCIVVGFTSGYVRFYTEGVLLLAQLLNEDKVLQLKCRTYEIPRHPGVTEQNEELSILYPAAIVTIDGFSLFQSLRACRNQVAKAAASGNENIQPPPLAYKKWGLQDIDTIIDHASVGIMTLSPFDQMKTASNIGGFNAAIKNSPPAMSQYITVGSSPFTGFFYALEGSTQPLLSHVALAVASKLTSALFSAASGWLGWKSKHEEDTVQKQKPKMEPATPLAVRFGLPDSRRHGESICLSPCNTLAAVTDDFGRVILLDVARGIAIRMWKGYRDAQVGWIQIVEDLHERVPEKGGFSPFGNTQGPSRVAQFLVIYAPRRGILEVWNTQQGPRVGAFNVGKHCRLLYPGYKIMGLNNVTSQSWQPQTYQICLVDPVSASVKAVNVPFHLALSDKKSERAKDLHLVKKLSALLRAKSPRPDSFETEIKELILDIKYPATKKQALESILASDRLSFSCLRNVTQTLMDTLKNQELESVDEGLLQFCASKLKLLHLYESVSQLNTLDFHSDTPFSDNDLAVLLRLDDKELLKLRALLEKYKQENTKATVRFSEDADRVLPVKTFLEYLEYEKDALSIRKIGEEECVALGSFFFWKCLHGKSSTEEMCHSLESAGLSPQQLLSLLLSVWLSKEKDILDKPQSVCCLHTMLSLLSKMKVAIDETWDSQSVSPWWQQMRMACIQSENSGAALLSAHVGHSVAAQMSSGATDKKFSQMELDADAEALTDSWEALSLDTEYWKLLLRQLEDCLILQTLLHSKLSPPAAKAPSLQSEPLPRLSVKKLLEGGKGGIADSVAKWIFKQDLSPELLKCANKERDVENPDEPREDLLHLAYEQFPCSLELDVLHAHCCWEYVVQWNKDPEEARFLVRSIEHLKQILNPHVQNGIALMMWNTFLVKRFSAATYLMDKVGKSPKDRLCRRDVGMSDTALTSFLGSCLELLQTSLEADISRDEVQVPVLDTEDAWLSVEGPISIVELALEQKPIHYPLVEHHSVLCSILYASMRFSLKSVKPLALFDSKGKNAFFKDLTSIQLLPSGEMDPNFISVRQQFLLKVVSAAVQAQHSKDKDPSAEAANTHWKDLNWPGLAVDLAHHLQVSDDVIRRHYVGELYSHGADLLGEEAIFQVQDKEVLASQLLVLTGQRLAHALFHTQTKEGMELLARLPPTLCTWLKAMNPQDLQNTGVPIAATAKLVHKVMELLPEKHGQYSLALHLIDAVEAMATL
B6: Rab13 (protein, UniProt Q9DD03 1-202)
chain: MAKAYDHLFKLLLIGDSGVGKTCLIIRFAEDNFNSTYISTIGIDFKIRTVDIEGKRIKLQVWDTAGQERFKTITTAYYRGAMGIILVYDITDEKSFENIQNWMKSIKENASAGVERLLLGNKCDMEAKRQVQREQAEKLAREHRIRFFETSAKSSVNVDEAFSSLARDILLKTGGRRSGTNSKPSSTGLKTSDKKKNKCLLG
B7: Golgi SNAP receptor complex 1 (protein, UniProt O88630 1-250)
chain: MAAGTSNYWEDLRKQARQLENELDLKLVSFSKLCTSYSHSGSRDGGRDRYSSDTTPLLNGSSQDRMFETMAIEIEQLLARLTGVNDKMAEYTHSAGVPSLNAALMHTLQRHRDILQDYTHEFHKTKANFTAIRERENLMGSVRKDIESYKSGSGVNNRRTELFLKEHDHLRNSDRLIEETISIAMATKENMTSQRGMLKSIHSKMNTLANRFPAVNSLIQRINLRKRRDSLILGGVIGICTILLLLYAFH

target: α5 integrin (mouse (endogenous in mouse lung microvascular ECs)); test: affinity purification with mass spectrometry; endogenous α5 integrin immunoprecipitated (Dynabeads Protein G with anti-α5 integrin antibody, 4 °C) from mouse microvascular EC lysates: WT/Ctrl, and siNRP1, siNRP2, siNRP1/2, sip120RasGAP ECs; α5.EC KO lysates as control for non-specific binding; LFQ-DIA-MS, Spectronaut, p < 0.01 cutoff; three independent experiments

Binder | binding
B1 | binds
B2 | binds
B3 | binds
B4 | binds
B5 | binds
B6 | binds
B7 | binds

Results are given in words; binding and its absence hold for the method and conditions named. In cells and extracts the contact can be indirect. These calls come from enrichment with a bait or labelling near it, and not all partners need be listed.
